According to patent US20250049800A1, “VCP/p97 INHIBITOR FOR THE TREATMENT OF CANCER” (CASI Pharmaceuticals, Inc., priority 2021, published 2025):
At least one compound was matched to its structure with a doubt left.

Columns and labels:
MOML-13 cell line = test: Cell Titer-Glo viability, fixed agent + dose response agent combinations; type: cell-based, human
Description: The additional therapeutic agents for this example were azacitidine (Cayman Chemical Cat No. 11164), decitabine (Sigma Cat No. A3656) and venetoclax (InvivoChem Cat. No. V0001).
Cell Culture: Three human acute myeloid leukemia tumor cell lines were used in this study: HL60, MV4;11 and MOLM-13. HL60 and MV4;11 were grown in IMDM base media with 20% and 10% FBS, respectively. MOLM-13 was grown in RPMI 1640 base media with 20% FBS. All culture media contained 2 mM glutamine, 100 units/mL sodium penicillin G, […] gentamicin, and 100 µg/mL streptomycin sulfate. The tumor cells were cultured in tissue culture flasks in a humidified incubator at 37° C., in an atmosphere of 5% CO2 and 95% air. Assay: Tumor cells were seeded in duplicate in a volume of 100 µL/well of media into 96-well micro-culture plates at initial densities low enough to allow for several population doublings (typically three to five) during the indicated incubation period. […] After 72 hours of culture with test articles, cell viability was determined using the Cell Titer-Glo® (Promega G7571) assay. […] Plates were gently shaken for two minutes and then incubated at room temperature for ten minutes prior to reading luminescence on the BMG Clariostar Plus microplate reader.
An IC50 ratio for each combination was calculated from the ratio of the combination IC50 as compared to the applicable no fixed agent (vehicle) control.

[1] = tested on: MOML-13 (Human Acute Myeloid Leukemia cell line); test: Combination Index (Chou-Talalay) of Compound 1 with second therapeutic agents; type: cell-based; settings: MOML-13 (BRCA2 mutant, FLT3 heterozygous)
Description: (§1) Each combination was tested in 3 cell lines: MOML-13 (Human Acute Myeloid Leukemia cell line; Addex Bio), MV-4-11 (Human B Myelomoncytic Leukemia cell line; ATCC), and OCI-AML-3 (Human Acute Myeloid Leukemia cell line).
(§2) Within this range, 20 dose levels were tested for each combination, with each response determined in duplicate. […] The actual drug concentrations in the ratios were determined from the IC50 values obtained for each individual drug.
(§3) Raw data was analyzed using Graph Pad Prism, four parameter logistic fits, and Chou-Talalay drug combination analyses. […] For data points with Fe<0, the fractional effect was set to 0.001. Data points with Fe>0.99 or <0.01 were omitted from the Chou-Talalay analysis because the Chou-Talalay analysis fits data to the Log of the fractional effect, with equal weight applied across the range of effect, such that the high and low end of the dose response, very small changes in effect within the range of experimental error erroneously skew the outcome of the model fit.
(§4) A Combination Index (CI) vs Fractional Effect plot showing the actual combination index plotted vs Fractional effect value was plotted for each combination dose. In this analysis, CI=1 represents additive activity, CI>1 represent less than additive activity (often referred to as antagonism) and CI<1=synergistic activity (better than additive).

[2] = tested on: MV-4-11 (Human B Myelomoncytic Leukemia cell line); test: as above; type: cell-based; settings: MV-4-11 (FLT3 homozygous mutant)
Description: as §1, §2, §3, §4

[3] = tested on: OCI-AML-3 (Human Acute Myeloid Leukemia cell line); test: as above; type: cell-based; settings: OCI-AML-3 (FLT3 wildtype)
Description: as §1, §2, §3, §4

## Nc1ncn([C@H]2C[C@H](O)[C@@H](CO)O2)c(=O)n1 [Decitabine, decitabine, reference compound]
MOML-13 cell line
  activity of combination with Compound 1 compared to monotherapies: enhanced activity

## CCc1nc(C(N)=O)c(Nc2ccc(N3CCC(N4CCN(C)CC4)CC3)c(OC)c2)nc1NC1CCOCC1 [Gilteritinib]
[1]
  effect of the combination with Compound 1: additive effects
[2]
  effect of the combination with Compound 1: synergistic
[3]
  effect of the combination with Compound 1: additive effects

## CC1(C)CCC(CN2CCN(c3ccc(C(=O)NS(=O)(=O)c4ccc(NCC5CCOCC5)c([N+](=O)[O-])c4)c(Oc4cnc5[nH]ccc5c4)c3)CC2)=C(c2ccc(Cl)cc2)C1 [Venetoclax]
[1]
  effect of the combination with Compound 1: synergy
[2]
  effect of the combination with Compound 1: strong additive (near synergistic effects)
[3]
  effect of the combination with Compound 1: strong additive (near synergistic effects)
